Laboratory results from patent US10357537B2, “Cyclotides as immunosuppressive agents” (priority 2011, dated 2019).
Not every detail of the peptide structures is certain; ends, links or a residue may be inferred. Bridge positions count the residues as written; N and C are the ends. Peptide text beside a SMILES is read from it.

Tested on: activated human primary PBMC
Assay: Anti-proliferative CFSE cell division assay on anti-CD3/CD28-activated PBMC
Details: read-out: IC50 (μM) ± STDEV, inhibition of PBMC proliferation; PBMCs, anti-CD3/28 mAbs, 72 h, cyclotides 1.8-14 μM; n.a. = not active
Description: Human peripheral blood mononuclear cells (PBMC) were isolated from the blood of healthy adult donors obtained from the Blood Transfusion Centre (University Medical Center, Freiburg, Germany). Venous blood was centrifuged on a LymphoPrep™ gradient (density: 1.077 g/cm^3, 20 min, 500×g, 20° C.; Progen, Heidelberg, Germany). Afterwards cells were washed twice with medium and cell viability and concentration was determined using the trypan blue exclusion test. PBMC were cultured in RPMI 1640 medium supplemented with 10% heat-inactivated fetal calf serum (PAA, Coelbe, Germany), 2 mM L-glutamine, 100 U/mL penicillin and […] (all from Invitrogen, Karlsruhe, Germany). The cells were cultured at 37° C. in a humidified incubator with a 5% CO2/95% air atmosphere. […]
After cultivation, the cells were assessed in bioassays as described in the text.
For cell proliferation and cell division tracking analysis PBMC were harvested and washed twice in cold PBS and resuspended in PBS at a concentration of 5×10^6 cells/mL. […] Afterwards, the cell division progress was analysed using flow cytometric analysis.
The anti-proliferative effect of cyclotide mutants/variants was tested according to Example 5. […] Afterwards the cell proliferation was assessed by analysing cell division using flow cytometric-based histogram analysis.

`CC(C)C[C@@H]1NC(=O)[C@H](CCCCN)NC(=O)[C@H](CC(N)=O)NC(=O)[C@H](CCCNC(=N)N)NC(=O)[C@H]([C@@H](C)O)NC(=O)[C@@H]2CSSC[C@@H]3NC(=O)[C@H]([C@@H](C)O)NC(=O)CNC(=O)CNC(=O)[C@H](C(C)C)NC(=O)[C@@H]4CSSC[C@H](NC(=O)[C@H](CCCCN)NC(=O)[C@H](CSSC[C@H](NC(=O)[C@H](C(C)C)NC(=O)[C@@H]5CCCN5C1=O)C(=O)NCC(=O)N[C@@H](CCC(=O)O)C(=O)N[C@@H]([C@@H](C)O)C(=O)N4)NC(=O)CNC(=O)[C@@H]1CCCN1C(=O)[C@H]([C@@H](C)O)NC(=O)[C@H](CC(N)=O)NC3=O)C(=O)N[C@@H](CO)C(=O)N[C@@H](Cc1c[nH]c3ccccc13)C(=O)N1CCC[C@H]1C(=O)N[C@@H](C(C)C)C(=O)N2` [T20K, G1K, Kalata T20K, G1K] (cyclo(CGETCVGGTCNTPGCKCSWPVCTRNKLPV); disulfide 1-15, 5-17, 10-22) gave an IC50 of 1.9 ± 0.1 µM.
